From the supplement of paper PMC10849652
The other results are listed elsewhere or left out.

The chains behind the UniProt entries cited, without tags or fusion partners. Where a name states a change or a piece, a line headed by the entry shows the natural chain unless it says otherwise.
UniProt Q12797: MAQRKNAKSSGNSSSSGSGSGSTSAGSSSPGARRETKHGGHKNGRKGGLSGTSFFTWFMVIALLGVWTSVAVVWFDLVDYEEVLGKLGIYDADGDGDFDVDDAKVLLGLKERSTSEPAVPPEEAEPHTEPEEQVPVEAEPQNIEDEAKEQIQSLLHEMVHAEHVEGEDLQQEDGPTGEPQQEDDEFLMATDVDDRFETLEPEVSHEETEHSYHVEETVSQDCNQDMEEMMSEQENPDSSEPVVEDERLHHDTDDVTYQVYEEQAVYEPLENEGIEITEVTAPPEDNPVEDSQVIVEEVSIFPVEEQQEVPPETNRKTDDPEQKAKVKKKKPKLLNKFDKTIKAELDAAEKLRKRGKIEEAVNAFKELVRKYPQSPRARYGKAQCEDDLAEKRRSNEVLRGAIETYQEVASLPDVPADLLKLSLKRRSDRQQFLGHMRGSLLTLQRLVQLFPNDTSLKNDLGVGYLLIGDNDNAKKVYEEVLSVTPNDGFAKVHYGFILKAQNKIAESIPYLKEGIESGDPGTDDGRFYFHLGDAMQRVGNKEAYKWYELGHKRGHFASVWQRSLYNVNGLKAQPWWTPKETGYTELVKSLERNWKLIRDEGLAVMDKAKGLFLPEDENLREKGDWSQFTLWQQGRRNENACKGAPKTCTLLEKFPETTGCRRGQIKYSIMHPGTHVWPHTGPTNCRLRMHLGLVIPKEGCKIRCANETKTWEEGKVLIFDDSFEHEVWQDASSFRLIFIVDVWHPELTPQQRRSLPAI
UniProt Q9H993: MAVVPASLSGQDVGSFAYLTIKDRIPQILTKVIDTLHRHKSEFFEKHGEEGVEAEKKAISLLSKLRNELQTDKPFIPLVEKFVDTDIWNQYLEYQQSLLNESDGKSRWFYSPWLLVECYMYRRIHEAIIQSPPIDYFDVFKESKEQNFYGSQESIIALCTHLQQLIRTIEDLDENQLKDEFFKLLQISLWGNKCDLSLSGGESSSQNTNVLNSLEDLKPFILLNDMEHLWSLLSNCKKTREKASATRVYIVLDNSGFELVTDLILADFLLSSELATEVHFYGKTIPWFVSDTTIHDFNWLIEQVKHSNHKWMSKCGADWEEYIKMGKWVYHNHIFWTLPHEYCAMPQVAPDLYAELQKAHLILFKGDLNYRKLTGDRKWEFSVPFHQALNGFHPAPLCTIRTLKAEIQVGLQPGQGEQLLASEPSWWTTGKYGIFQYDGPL
UniProt P56378: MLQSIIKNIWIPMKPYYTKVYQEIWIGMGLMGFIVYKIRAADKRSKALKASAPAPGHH
UniProt Q2TAZ0: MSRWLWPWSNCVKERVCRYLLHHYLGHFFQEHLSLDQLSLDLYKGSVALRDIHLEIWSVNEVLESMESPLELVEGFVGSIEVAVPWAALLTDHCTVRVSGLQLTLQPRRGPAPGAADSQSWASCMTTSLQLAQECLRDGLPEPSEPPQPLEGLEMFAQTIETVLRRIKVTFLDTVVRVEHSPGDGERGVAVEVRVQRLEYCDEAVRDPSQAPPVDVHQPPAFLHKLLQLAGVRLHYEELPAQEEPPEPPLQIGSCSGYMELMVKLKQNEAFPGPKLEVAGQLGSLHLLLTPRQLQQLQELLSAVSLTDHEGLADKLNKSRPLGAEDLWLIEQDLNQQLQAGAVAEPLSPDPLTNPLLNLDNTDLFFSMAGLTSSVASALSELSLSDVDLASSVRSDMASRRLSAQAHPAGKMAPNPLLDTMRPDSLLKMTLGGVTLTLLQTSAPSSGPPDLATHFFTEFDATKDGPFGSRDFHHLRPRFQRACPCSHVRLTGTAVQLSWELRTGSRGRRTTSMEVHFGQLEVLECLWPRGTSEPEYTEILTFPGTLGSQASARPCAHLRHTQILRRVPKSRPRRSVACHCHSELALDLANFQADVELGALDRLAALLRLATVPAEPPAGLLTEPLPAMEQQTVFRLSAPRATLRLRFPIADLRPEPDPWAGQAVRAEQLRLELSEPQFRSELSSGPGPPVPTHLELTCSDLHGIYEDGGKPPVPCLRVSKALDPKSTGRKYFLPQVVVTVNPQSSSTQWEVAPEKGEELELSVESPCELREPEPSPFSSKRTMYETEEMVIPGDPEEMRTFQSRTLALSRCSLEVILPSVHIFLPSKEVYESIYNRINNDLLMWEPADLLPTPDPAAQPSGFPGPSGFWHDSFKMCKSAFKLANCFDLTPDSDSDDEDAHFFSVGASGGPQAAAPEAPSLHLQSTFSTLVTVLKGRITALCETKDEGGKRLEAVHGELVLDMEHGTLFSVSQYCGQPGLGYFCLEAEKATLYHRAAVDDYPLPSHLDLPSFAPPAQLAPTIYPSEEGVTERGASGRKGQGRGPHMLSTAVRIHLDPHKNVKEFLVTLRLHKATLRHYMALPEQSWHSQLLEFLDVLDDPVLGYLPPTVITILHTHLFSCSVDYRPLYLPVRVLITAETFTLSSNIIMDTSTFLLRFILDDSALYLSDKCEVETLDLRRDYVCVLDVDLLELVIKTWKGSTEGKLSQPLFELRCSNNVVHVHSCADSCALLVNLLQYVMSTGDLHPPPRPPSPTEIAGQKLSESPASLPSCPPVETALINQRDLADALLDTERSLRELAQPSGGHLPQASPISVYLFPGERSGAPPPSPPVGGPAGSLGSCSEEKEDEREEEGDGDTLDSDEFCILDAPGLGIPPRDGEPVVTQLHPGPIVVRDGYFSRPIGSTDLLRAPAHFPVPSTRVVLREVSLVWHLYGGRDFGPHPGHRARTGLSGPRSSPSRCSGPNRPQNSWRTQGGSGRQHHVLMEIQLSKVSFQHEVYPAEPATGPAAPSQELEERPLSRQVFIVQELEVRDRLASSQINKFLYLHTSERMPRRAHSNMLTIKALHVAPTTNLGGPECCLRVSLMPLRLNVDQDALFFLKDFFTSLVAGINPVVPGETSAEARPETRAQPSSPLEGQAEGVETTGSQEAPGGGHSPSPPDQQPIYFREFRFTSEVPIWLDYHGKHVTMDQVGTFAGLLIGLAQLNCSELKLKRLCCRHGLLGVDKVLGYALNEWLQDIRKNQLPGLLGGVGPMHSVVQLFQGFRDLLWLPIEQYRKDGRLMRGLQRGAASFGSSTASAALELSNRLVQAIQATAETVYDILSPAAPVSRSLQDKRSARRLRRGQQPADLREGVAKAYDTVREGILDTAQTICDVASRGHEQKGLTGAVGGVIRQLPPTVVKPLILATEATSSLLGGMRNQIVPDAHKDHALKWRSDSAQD
UniProt Q93050, whole entry, looked up: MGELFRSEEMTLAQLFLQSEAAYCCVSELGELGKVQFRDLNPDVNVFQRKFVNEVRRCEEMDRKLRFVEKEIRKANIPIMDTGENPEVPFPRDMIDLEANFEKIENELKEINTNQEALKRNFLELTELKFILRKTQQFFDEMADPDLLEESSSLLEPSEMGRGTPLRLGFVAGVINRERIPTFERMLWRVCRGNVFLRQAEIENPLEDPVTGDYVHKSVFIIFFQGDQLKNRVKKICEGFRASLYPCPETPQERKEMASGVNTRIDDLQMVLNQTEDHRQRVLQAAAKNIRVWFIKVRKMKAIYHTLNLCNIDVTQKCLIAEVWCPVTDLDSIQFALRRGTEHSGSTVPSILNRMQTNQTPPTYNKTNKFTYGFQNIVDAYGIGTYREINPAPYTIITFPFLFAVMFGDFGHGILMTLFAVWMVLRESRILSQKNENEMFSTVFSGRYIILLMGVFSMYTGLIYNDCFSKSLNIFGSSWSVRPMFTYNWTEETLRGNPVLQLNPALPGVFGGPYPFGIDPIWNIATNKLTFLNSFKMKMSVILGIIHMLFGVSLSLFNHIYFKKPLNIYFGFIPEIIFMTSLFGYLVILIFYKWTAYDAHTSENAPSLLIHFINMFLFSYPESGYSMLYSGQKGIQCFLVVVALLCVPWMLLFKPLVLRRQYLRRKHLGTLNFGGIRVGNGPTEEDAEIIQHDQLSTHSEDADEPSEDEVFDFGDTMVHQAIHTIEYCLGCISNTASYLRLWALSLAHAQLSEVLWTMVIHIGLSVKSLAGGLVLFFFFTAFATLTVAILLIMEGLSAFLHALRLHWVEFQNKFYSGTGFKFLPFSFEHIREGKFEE
UniProt P14415, whole entry, looked up: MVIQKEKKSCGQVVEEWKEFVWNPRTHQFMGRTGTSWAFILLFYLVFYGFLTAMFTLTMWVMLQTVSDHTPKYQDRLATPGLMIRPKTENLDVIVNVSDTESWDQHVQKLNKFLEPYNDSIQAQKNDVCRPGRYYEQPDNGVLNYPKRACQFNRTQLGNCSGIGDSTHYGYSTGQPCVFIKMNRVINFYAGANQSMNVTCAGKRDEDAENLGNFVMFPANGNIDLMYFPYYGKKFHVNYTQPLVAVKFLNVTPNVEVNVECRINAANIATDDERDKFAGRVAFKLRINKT
UniProt Q93084: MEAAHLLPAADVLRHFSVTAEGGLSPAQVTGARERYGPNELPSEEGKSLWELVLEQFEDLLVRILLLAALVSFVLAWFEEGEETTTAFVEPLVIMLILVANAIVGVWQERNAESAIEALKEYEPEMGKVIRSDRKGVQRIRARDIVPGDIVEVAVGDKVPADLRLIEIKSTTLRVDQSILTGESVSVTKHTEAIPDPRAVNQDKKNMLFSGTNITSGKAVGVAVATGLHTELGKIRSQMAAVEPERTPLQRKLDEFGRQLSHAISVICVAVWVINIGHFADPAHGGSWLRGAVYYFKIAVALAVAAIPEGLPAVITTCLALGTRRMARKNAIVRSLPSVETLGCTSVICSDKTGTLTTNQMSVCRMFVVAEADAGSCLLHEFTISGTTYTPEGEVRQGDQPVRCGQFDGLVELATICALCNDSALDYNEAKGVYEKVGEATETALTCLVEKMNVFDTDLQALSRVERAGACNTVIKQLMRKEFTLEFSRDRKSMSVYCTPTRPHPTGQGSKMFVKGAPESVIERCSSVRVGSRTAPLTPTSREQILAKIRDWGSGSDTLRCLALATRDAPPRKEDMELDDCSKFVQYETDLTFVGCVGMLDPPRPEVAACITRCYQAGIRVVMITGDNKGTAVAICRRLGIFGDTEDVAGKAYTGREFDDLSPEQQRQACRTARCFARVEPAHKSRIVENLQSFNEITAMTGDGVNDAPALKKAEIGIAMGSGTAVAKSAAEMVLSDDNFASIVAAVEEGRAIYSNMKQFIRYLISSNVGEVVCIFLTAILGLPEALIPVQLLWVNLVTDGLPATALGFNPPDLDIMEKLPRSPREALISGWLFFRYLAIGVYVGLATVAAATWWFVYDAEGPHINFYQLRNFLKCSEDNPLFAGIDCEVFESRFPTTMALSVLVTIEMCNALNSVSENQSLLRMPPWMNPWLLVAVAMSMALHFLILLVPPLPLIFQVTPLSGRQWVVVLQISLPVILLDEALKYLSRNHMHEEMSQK
UniProt Q9Y294, whole entry, looked up: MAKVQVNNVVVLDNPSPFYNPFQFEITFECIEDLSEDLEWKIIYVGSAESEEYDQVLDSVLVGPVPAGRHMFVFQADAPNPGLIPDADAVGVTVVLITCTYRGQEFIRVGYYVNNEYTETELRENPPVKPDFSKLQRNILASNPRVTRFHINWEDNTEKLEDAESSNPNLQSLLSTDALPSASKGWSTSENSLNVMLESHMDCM
UniProt O75143: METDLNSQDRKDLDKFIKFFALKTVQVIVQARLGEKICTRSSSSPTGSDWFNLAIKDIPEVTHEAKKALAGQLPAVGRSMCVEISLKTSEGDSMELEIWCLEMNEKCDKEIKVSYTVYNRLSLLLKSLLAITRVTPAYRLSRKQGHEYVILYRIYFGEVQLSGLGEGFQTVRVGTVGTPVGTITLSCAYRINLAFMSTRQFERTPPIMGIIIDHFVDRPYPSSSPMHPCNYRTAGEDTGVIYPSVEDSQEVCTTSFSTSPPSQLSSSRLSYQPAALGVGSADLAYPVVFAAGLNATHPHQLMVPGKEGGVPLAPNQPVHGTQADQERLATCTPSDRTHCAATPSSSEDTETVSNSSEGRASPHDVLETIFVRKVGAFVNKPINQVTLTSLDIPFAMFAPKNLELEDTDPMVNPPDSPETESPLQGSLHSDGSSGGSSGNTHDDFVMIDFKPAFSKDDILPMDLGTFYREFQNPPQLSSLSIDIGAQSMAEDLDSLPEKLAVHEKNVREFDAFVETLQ
UniProt P00966: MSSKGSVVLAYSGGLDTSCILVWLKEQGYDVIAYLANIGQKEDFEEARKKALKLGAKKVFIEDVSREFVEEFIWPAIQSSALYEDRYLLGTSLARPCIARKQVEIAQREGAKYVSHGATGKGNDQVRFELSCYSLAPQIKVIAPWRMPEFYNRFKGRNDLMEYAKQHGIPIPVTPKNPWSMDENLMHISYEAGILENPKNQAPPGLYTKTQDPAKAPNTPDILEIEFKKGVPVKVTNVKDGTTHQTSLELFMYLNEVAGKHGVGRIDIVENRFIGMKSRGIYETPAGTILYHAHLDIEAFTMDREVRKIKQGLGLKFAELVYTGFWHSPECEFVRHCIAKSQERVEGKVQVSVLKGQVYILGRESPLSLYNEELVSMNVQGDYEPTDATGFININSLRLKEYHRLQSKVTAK
UniProt P56134: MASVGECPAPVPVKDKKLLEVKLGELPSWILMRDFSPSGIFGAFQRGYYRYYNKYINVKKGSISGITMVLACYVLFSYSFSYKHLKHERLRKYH
UniProt P56381: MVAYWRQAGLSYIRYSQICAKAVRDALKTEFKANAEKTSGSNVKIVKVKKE

Compound: O=C(CCCCCCC(=O)Nc1ccccc1)NO [vorinostat]
Test: log2 fold change, soluble protein after heating vs DMSO (PISA); higher = thermal stabilisation; K562 cells, 10 uM, 30 min; active = over 0.2 and 3.5 SD of the protein, either way, in both replicates (recomputed)
How it was run: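 Thermal stability values are relative to control samples and come from duplicates. They are expressed as log2 fold changes. For measurement, K562 cells (2×10^6 cells/mL) received 10 μM compound for 30 min, and aliquots were heated for 3 min over 48°C-58°C, pooled, and extracted at 4°C in PBS with 0.5% NP-40. Soluble protein, the supernatant after 21,000xg for 90 min, was quantified by TMTpro 16plex LC-MS/MS with equalised channel sums.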

log2 fold change, inactive:
ATG9A (UniProt Q7Z3C6) 0.061, ASPH (UniProt Q12797) 0.002, ATG16L1 (UniProt Q676U5) 0.01, ARPC1B (UniProt O15143) -0.013, ARPC4 isoform 3 (UniProt P59998) -0.042, ATP7B (UniProt P35670) 0.035, ARMT1 (UniProt Q9H993) 0.139, ATOX1 (UniProt O00244) -0.018, ATP5MPL (UniProt P56378) -0.105, ATG2A isoform 3 (UniProt Q2TAZ0) 0.02, ARL15 (UniProt Q9NXU5) 0.028, ATP5F1A (UniProt P25705) -0.028, ATG2B (UniProt Q96BY7) -0.046, ARL2 (UniProt P36404) 0.031, ATP6V1C1 (UniProt P21283) 0.039, ATP2A2 (UniProt P16615) 0.001, ATP6V1B2 (UniProt P21281) -0.026, ATP6V0A1 isoform 3 (UniProt Q93050) 0.062, ARPC5 (UniProt O15511) -0.06, ATP1B2 (UniProt P14415) 0.014, ASNA1 (UniProt O43681) -0.035, ATP2A3 isoform 2 (UniProt Q93084) -0.018, ASAP1 isoform 2 (UniProt Q9ULH1) 0.076, ATP11C (UniProt Q8NB49) -0.031, ASF1A (UniProt Q9Y294) 0.105, ATM (UniProt Q13315) 0.042, ARMC8 (UniProt Q8IUR7) -0.031, ATG13 isoform 5 (UniProt O75143) 0.003, ATIC (UniProt P31939) -0.026, ARPP19 (UniProt P56211) -0.038, ATG4B isoform 2 (UniProt Q9Y4P1) 0.268, ASH2L (UniProt Q9UBL3) 0.013, ASS1 (UniProt P00966) -0.052, ARL13B (UniProt Q3SXY8) -0.028, ASAH1 isoform 2 (UniProt Q13510) 0.046, ATP6V1F isoform 2 (UniProt Q16864) -0.092, ATP5MF (UniProt P56134) -0.042, ATP5F1E (UniProt P56381) -0.056, ATP7A isoform 3 (UniProt Q04656) -0.039
